Among the data in PMC11014856 are binding values, retold here.

By UniProt entry, the sequences of proteins in these tests, tags left out. Residues count along the entry.
UniProt Q8NFZ4, residues 15-835: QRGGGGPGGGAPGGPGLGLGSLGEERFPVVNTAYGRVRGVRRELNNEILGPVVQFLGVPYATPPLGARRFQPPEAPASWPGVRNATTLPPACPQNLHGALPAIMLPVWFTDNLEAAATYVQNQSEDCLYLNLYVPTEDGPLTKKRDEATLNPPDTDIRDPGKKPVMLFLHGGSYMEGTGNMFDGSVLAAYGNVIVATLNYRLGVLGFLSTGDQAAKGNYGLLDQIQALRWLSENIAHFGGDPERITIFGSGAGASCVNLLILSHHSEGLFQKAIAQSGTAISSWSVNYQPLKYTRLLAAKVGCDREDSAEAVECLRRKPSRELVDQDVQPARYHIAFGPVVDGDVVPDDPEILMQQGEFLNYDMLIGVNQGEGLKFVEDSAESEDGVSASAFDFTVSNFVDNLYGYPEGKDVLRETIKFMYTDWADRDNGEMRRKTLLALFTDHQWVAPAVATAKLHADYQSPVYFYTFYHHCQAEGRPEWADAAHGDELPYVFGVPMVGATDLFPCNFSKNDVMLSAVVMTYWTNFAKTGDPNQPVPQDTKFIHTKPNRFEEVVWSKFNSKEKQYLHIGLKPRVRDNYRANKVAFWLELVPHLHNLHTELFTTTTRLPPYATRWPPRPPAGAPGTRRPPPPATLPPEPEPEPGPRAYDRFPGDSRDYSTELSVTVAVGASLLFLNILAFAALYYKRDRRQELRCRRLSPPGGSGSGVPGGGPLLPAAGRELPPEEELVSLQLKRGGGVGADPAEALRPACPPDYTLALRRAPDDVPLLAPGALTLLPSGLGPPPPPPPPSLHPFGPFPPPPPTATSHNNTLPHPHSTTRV

Assay [1] concerns the target PALS1 (human (endogenous in WT-HPDE)) (UniProt Q8N3R9). Kind of assay: co-IP; endogenous proteins; lysates of Ctrl and shNLGN2 (NLGN2-silenced) WT-HPDE cells at mature confluence, homogenized in cold EB buffer (QIAGEN) and clarified; extracts incubated overnight with Dynabeads preincubated with a primary antibody (1 µg per mg of protein); western blot.
The target in assay [2] is PATJ (human (endogenous in WT-HPDE)) (UniProt Q8NI35). The description is as above.

These are yes or no findings as the source states them, for the method shown. In cells and extracts the contact can be indirect. Some binding calls cover weakened binding; strength is not graded here.

On to AMOT (from UniProt Q4VCS5 1-1084), for which the binding result in assay [1] and in assay [2] was “binds” each time.

Take YAP (from UniProt P46937 1-504): the binding result in assay [1] and in assay [2] was “binds” in each case.

In the case of “neuroligin-2 (from UniProt Q8NFZ4 15-835)”, in assay [2], the binding entry is listed as “binds”.
